Measured values taken from PubChem BioAssay AID2417 (National Center for Advancing Translational Sciences (NCATS), 2010).
Among all 140,000 compounds or so, about 4,300 (3.1%) were called active. Inconclusive means that the source gave no clear call. Such entries were picked first, then a sample of the others.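 The calls were made as follows: active = readout at or below -70, meaning at least 70% loss of cells showing the perinucleolar compartment, a nuclear body marking cancer cells; inconclusive = readout between -30 and a set limit; inactive = the rest.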

assay: High Content Assay for Compounds that inhibit the Assembly of the Perinucleolar Compartment; details: PC3M PTB-GFP, PNC prevalence imaging, 16 h; at 10 µM; active compounds read low;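 also: plate controls were DMSO wells for no effect and camptothecin positive control wells for full effect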
Procedure, shortened: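 PC3M cells stably expressing PTB-GFP, 750–1000 cells/well, treated 16 h at 37 °C with compound (23 nl of library stock), in duplicate. After paraformaldehyde fixation and Hoechst stain, imaged at 20x; PNC prevalence scored by image analysis.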

| SMILES | activity change (PNC), negative = inhibition |
| --- | --- |
| O=S(=O)(c1cc(Cl)ccc1Cl)N1CCCC1 | inconclusive: -57.2% |
| CC(O)CCC(=O)NCCNC(=O)CCC(C)O (stereo unspecified) | inconclusive: -32.8% |
| COC(=O)CCN(c1ccccc1)S(=O)(=O)c1ccc(OC)cc1 | inconclusive: -35.6% |
| O=C(NC1CCCc2ccccc21)C1CCC(CNc2c(N3CCOCC3)c(=O)c2=O)CC1 (stereo unspecified) | inactive: 3.31% |
| COc1ccc(OCC(O)CN2C(=O)c3ccccc3S2(=O)=O)cc1 (stereo unspecified) | active: -83.4% |
| COC(=O)c1ccccc1NC(=O)CSc1nnc(CNS(=O)(=O)c2ccc(C)cc2)n1C | inconclusive: -31.4% |
| CC(C)c1ccc(NC(=S)NCc2cccs2)cc1 | inconclusive: -39.1% |
| N=c1sccn1CC(=O)Nc1ccccc1Cc1ccccc1 | inconclusive: -53.9% |
| Cc1ccc2cc3cc(C(=O)NCCN4CCOCC4)oc3nc2c1 | active: -100% |
| Cc1ccc(S(=O)(=O)n2nc(C)cc2C)cc1 | inactive: 35% |
| COc1cccc(-n2cnc3sc(C)c(C)c3c2=O)c1 | inconclusive: -40.2% |
| CCC(=O)N1C(C(=O)NCc2ccc(OC)cc2)CSC1c1ccc(OC)cc1 (stereo unspecified) | inconclusive: -54.3% |
| COc1ccccc1Nc1nc2ccccc2n1C | inconclusive: -32% |
| CCOc1ccc(N2C(=O)CC(S/C(N)=N/N=C/c3cccs3)C2=O)cc1 (stereo unspecified) | inconclusive: -35.5% |
| CCc1nc(N)c(C#N)c(-c2cccc3ccccc23)c1C | active: -100% |
| O=[N+]([O-])c1ccc(C2CCCC/C2=N/OCc2ccccc2F)c([N+](=O)[O-])c1 (stereo unspecified) | inconclusive: -46.7% |
| NC(=O)NC(Cc1ccccc1)C(=O)NCC1(N2CCCCC2)CCCCC1 (stereo unspecified) | inconclusive: -33.5% |
| Cc1cccc(C)c1OCc1nc2ccccc2c(=O)n1/N=C/c1c[nH]c2ccccc12 | inconclusive: -43.4% |
| Cc1cnc(NC(=O)CCCSc2nc3ccccc3s2)s1 | inconclusive: -34.7% |
| CCN(CC)C(=O)CSc1nc2ncc(Cl)cc2[nH]1 | inconclusive: -54.8% |
| C=CCN(CC=C)C(=O)C1CC(=O)N(c2ccc(Br)cc2)C1 (stereo unspecified) | inactive: 15.7% |
| Cc1cc(C)c(C)c(S(=O)(=O)N2CCC(C(=O)Nc3ccccc3N3CCOCC3)CC2)c1C | inconclusive: -31% |
| CC1=CCC2C(=O)N(c3cc(C)on3)C(=O)C2C1 (stereo unspecified) | inconclusive: -30.5% |

2 neighbouring entries from above:

| SMILES | activity change (PNC), negative = inhibition |
| --- | --- |
| CCOc1ccc(N2C(=O)CC(S/C(N)=N/N=C/c3cccs3)C2=O)cc1 (stereo unspecified) | inconclusive: -35.5% |
| CCc1nc(N)c(C#N)c(-c2cccc3ccccc23)c1C | active: -100% |

(further entries)

| SMILES | activity change (PNC), negative = inhibition |
| --- | --- |
| Oc1cc2ccccc2cc1-c1nnc2n1-c1ccccc1SC2 | inconclusive: -50.8% |
| CC(C)CNC(=O)COc1ccc2c3c(c(=O)oc2c1)CCC3 | inconclusive: -32.8% |
| COc1ccc(-n2nc(C(=O)NCc3ccco3)c3ccccc3c2=O)cc1 | active: -83.9% |
| CC(=O)NC1CC2CCCC(C1)N2C(=O)Nc1ccc(Cl)c(C(F)(F)F)c1 (stereo unspecified) | inconclusive: -43.2% |
| COc1ccc(CNC(=O)CCSCc2ccccc2Cl)c(OC)c1 | inactive: 6.05% |
| CC(C)NC(=O)Cn1c(=O)c2c(ncn2Cc2ccccc2)n(Cc2ccccc2)c1=O | inconclusive: -59.6% |
| Cc1cc(OCC(=O)NCCN2CCOCC2)cc(C)c1Br | inactive: 31% |
| Cc1ccc(N2C(=O)C3CCC(c4ccccc4)CC3C2=O)cc1 (stereo unspecified) | inconclusive: -45.5% |
| Cc1ccc(NC(=O)c2cc(N3C(=O)C4CC=CCC4C3=O)ccc2N2CCCCC2)cc1 (stereo unspecified) | inactive: 66% |
| O=C(CCCn1c(SCC(=O)NCC2CCCO2)nc2ccccc2c1=O)NCc1ccccc1 (stereo unspecified) | inactive: 27.2% |
| CCc1ccc(C2C(C#N)=C(N)Oc3n[nH]c(CC(=O)OC)c32)cc1 (stereo unspecified) | inactive: 18.8% |
| Cc1ccc(NC(=O)c2ccccc2NC(=O)Cc2ccccc2)cc1 | inconclusive: -33.6% |
| O=C(Nc1ccc2c(c1)OCO2)C1CCCN(S(=O)(=O)Cc2ccccc2)C1 (stereo unspecified) | inconclusive: -32.9% |
| CCn1c(C(=O)N2CCCC(C(=O)NCCc3ccc(C)cc3)C2)cc2sccc21 (stereo unspecified) | inconclusive: -42% |
| COC(=O)/C=C1/N/C(=N\c2nc(C)cc(C)n2)N(c2ccc(Cl)cc2)C1=O | inactive: 0.247% |
| COc1cc(C(=O)OCC(=O)N(C)Cc2ccccc2)cc(OC)c1OC | active: -100% |
| Cc1nc(-c2ccc(C(=O)N3CCOCC3)cc2)cs1 | inconclusive: -54.4% |
| CCOc1ccccc1/C=N/NC(=O)Cc1csc(Nc2cccc(C(F)(F)F)c2)n1 | inactive: 8.56% |
| c1ccc2c(c1)c1ccccc1n1c(-c3ccc4c(c3)OCO4)nnc21 | inconclusive: -70.5% |
| O=C1c2ccccc2C(=O)C12OC2c1ccc(Cl)cc1 (stereo unspecified) | inactive: 40% |
| COc1cccc(C(=O)Nc2nc(-c3ccc(S(=O)(=O)N4CCOCC4)cc3)cs2)c1 | inconclusive: -69.6% |
| CCN(CC)S(=O)(=O)c1cc(NS(=O)(=O)c2cccc(Cl)c2Cl)ccc1C | inactive: 45.6% |
| Cc1ccc(S(=O)(=O)CCC(=O)Nc2ccc3c(c2)OCO3)cc1 | inconclusive: -58.3% |

Fetched by compound from the list above, 5 records:

| SMILES | activity change (PNC), negative = inhibition |
| --- | --- |
| CC(O)CCC(=O)NCCNC(=O)CCC(C)O (stereo unspecified) | inconclusive: -32.8% |
| COc1ccc(-n2nc(C(=O)NCc3ccco3)c3ccccc3c2=O)cc1 | active: -83.9% |
| O=[N+]([O-])c1ccc(C2CCCC/C2=N/OCc2ccccc2F)c([N+](=O)[O-])c1 (stereo unspecified) | inconclusive: -46.7% |
| COc1ccc(CNC(=O)CCSCc2ccccc2Cl)c(OC)c1 | inactive: 6.05% |
| Cc1nc(-c2ccc(C(=O)N3CCOCC3)cc2)cs1 | inconclusive: -54.4% |

More entries:

| SMILES | activity change (PNC), negative = inhibition |
| --- | --- |
| Cc1ccc(CN2CCN(CC(=O)NC(C)CCc3ccccc3)C2=O)cc1 (stereo unspecified) | inconclusive: -32.3% |
| COc1ccc2nc(SCC(=O)N3CCCCCC3)c(C#N)cc2c1 | inactive: -13.3% |
| COc1ccc(N=Nc2cnc(C)nc2-c2ccccc2)cc1 | active: -84.7% |
| COC(=O)C1=NN(c2ccccc2)C2(S1)S/C(=C\c1ccccc1)C(=O)N2c1ccccc1 (stereo unspecified) | inconclusive: -31.2% |
| CC(C)CCn1c(-c2nonc2N)nc2ccccc21 | inactive: 145% |
| COc1cc(-c2nc3cnccn3c2Nc2ccc3c(c2)OCCO3)ccc1O | inconclusive: -39.9% |
| COc1cccc(C(CC(=O)NCc2ccco2)NS(=O)(=O)c2ccc(C)cc2)c1OC (stereo unspecified) | inactive: -20.9% |
| CCCS(=O)(=O)N1CCC(C(=O)NCc2ccco2)CC1 | inactive: -3.07% |
| COc1ccc(C2C(C(=O)Nc3ccc4c(c3)OCCO4)c3ccccc3C(=O)N2C)cc1 (stereo unspecified) | inactive: 28.7% |
| CCC(Oc1ccccc1)C(=O)Nc1nnc(C(F)(F)F)s1 (stereo unspecified) | inconclusive: -66.4% |
| CCn1c(NC(=O)c2ccc(F)cc2)c2ccccc2nc1=O | inactive: 24.5% |
| COC(=O)c1ccc2c(=O)n(CCN3CCOCC3)c(=S)[nH]c2c1 | active: -100% |
| COc1ccc(N(CC(=O)Nc2ccc3c(c2)OCO3)S(C)(=O)=O)c(OC)c1 | inconclusive: -47.6% |
| CCOc1cc(C2CC(=O)N3CN(C4CCCCC4)CSC3=C2C#N)ccc1O (stereo unspecified) | inconclusive: -49% |
| CCOC(=O)C1CCN(c2c(N3CCN(Cc4ccccc4)CC3)c(=O)c2=O)CC1 | inconclusive: -44.5% |
| CC(C)(C)NC(=O)COC(=O)c1cc(F)c(F)cc1Cl | inconclusive: -30.3% |
| O=C(N/N=C/c1sc2ccccc2c1O)c1ccccc1 | inconclusive: -76% |
| CC(C)CN1C(=O)c2ccccc2C1(O)Cc1ccccc1 (stereo unspecified) | inactive: -16.2% |
| N#C/C(=C\c1cn(CCOc2ccccc2F)c2ccccc12)C(=O)NCc1cccs1 | inconclusive: -41.6% |
| N#Cc1cc(-c2cccc(Cl)c2)c[nH]c1=O | active: -91.7% |
| CSc1nnc(NC(=O)c2ccc(C)c(S(=O)(=O)N3CCOCC3)c2)s1 | inconclusive: -57.8% |
| Cc1cc(NC2C3CC4CC(C3)CC2C4)n2ncnc2n1 (stereo unspecified) | inconclusive: -42.3% |
| O=C1CC(N2CCOCC2)C(=O)N1c1ccccc1Cl (stereo unspecified) | active: -94% |

| SMILES | activity change (PNC), negative = inhibition |
| --- | --- |
| O=C(CCSc1ccccc1)N1CCN(C(=O)c2ccco2)CC1 | active: -90.8% |
| O=c1/c(=C/c2ccco2)sc2n1CN(c1cccc(Br)c1)CN=2 | inconclusive: -31.7% |
| O=C(c1cccc(F)c1)N1CCC(N2CCOCC2)CC1 | inactive: 0.977% |
| Cc1c(N(C(=O)c2cc(=O)[nH]c3ccccc23)C(C)C)c(=O)n(-c2ccccc2)n1C | inconclusive: -34.2% |
| CC1CCCC(NC(=O)Cc2ccc(Br)cc2)C1C (stereo unspecified) | inactive: -8.94% |
| O=C(CSc1nc2ccccc2s1)Nc1nccs1 | inactive: 40.9% |
| COC(=O)C1=C(CSc2nc3c(cc2C#N)CN(C)CC3)OC(N)=C(C#N)C1c1ccccc1F (stereo unspecified) | inconclusive: -67.4% |
| CCOc1ccc(-c2cc(C(=O)NN)[nH]n2)cc1 | inconclusive: -39.8% |
| COc1ccc(S(=O)(=O)N(CC(=O)O)c2ccccc2)cc1 | inconclusive: -38.4% |
| CC(=O)Nc1ccc(NC(=O)c2ccc(COc3ccc4c(C)cc(=O)oc4c3)cc2)cc1 | inactive: -16% |
| COc1cccc(C(=O)N2CCN(Cc3ccccn3)CC2)c1OC | inconclusive: -34.4% |
| Cc1cccc(NC(=O)Cn2c(=O)n(CCc3c[nH]c4ccccc34)c(=O)c3cccnc32)c1 | inactive: 7.76% |
| Cc1ccc(C2C(C#N)=C(N)SC(N)=C2C#N)o1 | inactive: 18.2% |
| Cc1ccc(C2CC(c3cccs3)=NN2C(=O)c2ccc(Br)o2)cc1 (stereo unspecified) | inactive: -29.7% |
| O=C(c1cccs1)N(Cc1ccco1)Cc1cc2ccccc2[nH]c1=O | active: -117% |
| NC(=O)Cc1ccc2sc(-c3ccccc3)nc2c1 | inconclusive: -35.2% |
| CCCC(=O)Nc1ccc(C(=O)Nc2cccc(OC)c2)cc1 | inconclusive: -33.7% |
| Cc1ccc(NC(=O)C(Nc2cccc(C)c2)c2ccccc2)cc1 (stereo unspecified) | inactive: 16.2% |
| CC1(C)CC(=O)C(C=NCCN2CCN(C(=O)C34CC5CC(CC(C5)C3)C4)CC2)=C(O)C1 | inactive: -24.9% |
| Cn1cc(C(=O)c2ccccc2)cc1-c1nc2ccccc2n1C | inactive: -29.5% |
| CC1(C)Cc2c(c(N3CCOCC3)nc3sc4c(NN)ncnc4c23)CS1 | inconclusive: -37.3% |
| COc1cc(OC)cc(-c2nnc(SCC(=O)N3CCOCC3)o2)c1 | inactive: -1.62% |
